Results as given in the supplement of paper PMC6078165.
Values are relative to the signal before dosing, not to a vehicle control; the signal also falls without drug.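 Cells used are triple-negative breast cancer lines, either basal-like or mesenchymal-like, grown in the absence of fibroblasts. Lower red signal means mitochondrial integrity is lost, a surrogate for apoptosis.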

How the values were obtained:
Test in all cases: relative JC-1 red fluorescence (viability) vs pre-drug, monoculture (fraction); higher = more viable cancer cells
Details in all cases: coculture fibroblast: none (monoculture)
[1] = test system: BT20
Protocol: (§1)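 JC-1 labelled TNBC cells grown in monoculture (density kept equal with unlabelled cancer cells) in 384-well plates in FluoroBrite medium, treated with one of 42 anticancer drugs at 0.1, 1, 10 or 100 uM. JC-1 red fluorescence (mitochondrial integrity, surrogate of apoptotic death) was read by plate reader every 8 h for 72 h. Values are normalised to each well's pre-drug value, with background from alamethicin. The stock of one drug was tenfold lower, so its dose labels may be too high. Monoculture values are repeated alongside each fibroblast plate and are averaged here.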

[2] = test system: MDAMB468
Protocol: as §1

[3] = test system: MDAMB436
Protocol: as §1

[4] = test system: MDAMB231
Protocol: as §1

O=C(O)CCCc1ccc(N(CCCl)CCCl)cc1 [Chlorambucil]
relative JC-1 red fluorescence
Details | 8 h | 16 h | 24 h | 32 h | 40 h | 48 h | 56 h | 64 h | 72 h
[1], 0.1 µM | 0.914 | 0.823 | 0.8 | 0.744 | 0.724 | 0.733 | 0.719 | 0.728 | 0.739
[1], 1 µM | 0.9447 | 0.8692 | 0.788 | 0.7065 | 0.667 | 0.637 | 0.603 | 0.585 | 0.567
[1], 10 µM | 0.9535 | 0.817 | 0.746 | 0.674 | 0.63 | 0.602 | 0.573 | 0.558 | 0.536
[1], 100 µM | 0.941 | 0.865 | 0.815 | 0.743 | 0.696 | 0.67 | 0.6338 | 0.622 | 0.617
[2], 0.1 µM | 0.8178 | 0.8007 | 0.805 | 0.782 | 0.771 | 0.797 | 0.794 | 0.806 | 0.821
[2], 1 µM | 0.883 | 0.81 | 0.732 | 0.667 | 0.632 | 0.608 | 0.58 | 0.55364 | 0.5472
[2], 10 µM | 0.831 | 0.757 | 0.709 | 0.642 | 0.594 | 0.574 | 0.548 | 0.526 | 0.509
[2], 100 µM | 0.8701 | 0.792 | 0.745 | 0.691 | 0.632 | 0.6029 | 0.5645 | 0.513 | 0.49
[3], 0.1 µM | 0.8458 | 0.871 | 0.855 | 0.932 | 0.95 | 0.823 | 0.71796 | 0.817 | 0.864
[3], 1 µM | 0.854 | 0.7592 | 0.715 | 0.654 | 0.643 | 0.632 | 0.62 | 0.615 | 0.626
[3], 10 µM | 0.898 | 0.805 | 0.834 | 0.803 | 0.804 | 0.812 | 0.822 | 0.836 | 0.855
[3], 100 µM | 0.8492 | 0.754 | 0.718 | 0.66 | 0.634 | 0.614 | 0.59 | 0.573 | 0.552
[4], 0.1 µM | 0.761 | 0.707 | 0.906 | 0.755 | 0.751 | 0.803 | 0.801 | 0.87 | 0.805
[4], 1 µM | 0.7287 | 0.709 | 0.59179 | 0.579 | 0.526 | 0.506 | 0.479 | 0.4743 | 0.477
[4], 10 µM | 0.765 | 0.7002 | 0.771 | 0.689 | 0.656 | 0.666 | 0.647 | 0.69 | 0.691
[4], 100 µM | 0.728 | 0.685 | 0.577 | 0.568 | 0.495 | 0.476 | 0.434 | 0.442 | 0.425

CN(Cc1cnc2nc(N)nc(N)c2n1)c1ccc(C(=O)N[C@@H](CCC(=O)O)C(=O)O)cc1 [Methotrexate]
relative JC-1 red fluorescence
Details | 8 h | 16 h | 24 h | 32 h | 40 h | 48 h | 56 h | 64 h | 72 h
[1], 0.1 µM | 0.9342 | 0.886 | 0.80139 | 0.728 | 0.692 | 0.667 | 0.647 | 0.622 | 0.6
[1], 1 µM | 0.9409 | 0.8873 | 0.819 | 0.7449 | 0.707 | 0.695 | 0.663 | 0.657 | 0.652
[1], 10 µM | 0.93701 | 0.8796 | 0.822 | 0.756 | 0.732 | 0.714 | 0.696 | 0.679 | 0.67
[1], 100 µM | 0.913 | 0.818 | 0.786 | 0.73 | 0.702 | 0.688 | 0.662 | 0.651 | 0.643
[2], 0.1 µM | 0.907 | 0.858 | 0.804 | 0.697 | 0.6455 | 0.6175 | 0.5704 | 0.5349 | 0.5081
[2], 1 µM | 0.892 | 0.83 | 0.725 | 0.672 | 0.619 | 0.594 | 0.561 | 0.531 | 0.519
[2], 10 µM | 0.936 | 0.879 | 0.825 | 0.75 | 0.715 | 0.692 | 0.666 | 0.649 | 0.639
[2], 100 µM | 0.918 | 0.8381 | 0.808 | 0.737 | 0.707 | 0.7 | 0.67 | 0.655 | 0.652
[3], 0.1 µM | 0.8689 | 0.829 | 0.817 | 0.783 | 0.79 | 0.807 | 0.818 | 0.839 | 0.848
[3], 1 µM | 0.86 | 0.7475 | 0.786 | 0.747 | 0.74 | 0.743 | 0.74 | 0.747 | 0.762
[3], 10 µM | 0.912 | 0.9169 | 0.941 | 0.928 | 0.817 | 0.794 | 0.826 | 0.845 | 0.837
[3], 100 µM | 0.855 | 0.7158 | 0.7312 | 0.6759 | 0.656 | 0.649 | 0.634 | 0.627 | 0.628
[4], 0.1 µM | 0.7636 | 0.757 | 0.6943 | 0.68 | 0.626 | 0.632 | 0.592 | 0.615 | 0.6
[4], 1 µM | 0.74483 | 0.707 | 0.647 | 0.567 | 0.53 | 0.522 | 0.495 | 0.511 | 0.511
[4], 10 µM | 0.814 | 0.742 | 0.789 | 0.702 | 0.659 | 0.638 | 0.61 | 0.646 | 0.63
[4], 100 µM | 0.725 | 0.671 | 0.648 | 0.593 | 0.548 | 0.54 | 0.505 | 0.519 | 0.51
